From PubChem BioAssay AID1487 (National Center for Advancing Translational Sciences (NCATS), 2009)
The list shows a part of the results. Shown are side measurements of this screen, not its main read-out; they come without a call. Most of these compounds were active or inconclusive in the main read-out, so they are no random draw. Potencies come from curve fits of mixed quality, noted in brackets.

Experiment: qHTS Assay for Modulators of Lamin A Splicing
Conditions: HeLa LMNA splicing GFP/RFP minigene ratio, 48 h
In short: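 Read-out is the ratio of GFP to DsRed2 object intensity, acquired by 488 nm laser-scanning cytometry on HeLa lamin A-EGFP minigene reporter cells. Compound incubation 48 hrs at 37 °C in Opti-MEM with 2% FBS; DMSO 0.5% final.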

[1] = measured here: GFP splicing reporter channel
[2] = measured here: RFP viability control channel

Structure (SMILES) | AC50 [1] | AC50 [2]
Cc1ccc(S(=O)(=O)NNC(=O)C(=O)NNS(=O)(=O)c2ccc(C)cc2)cc1 | 0.158 µM [falling, full curve, poor fit] | 0.178 µM [falling, full curve, poor fit]
Cc1cc(C)c2nc(/N=C(\N)NC(=O)Nc3ccccc3)nc(C)c2c1 |  | 15.8 µM [rising, partial curve]
Cc1ccc(NC(=O)Nc2nnc(SCC(=O)N3CCC(C)CC3)s2)cc1 |  | 31.6 µM [rising, single point]
COc1ccc(C)cc1-n1c(SCC(=O)Nc2cc(C)on2)nc2ccccc2c1=O | 1 µM [falling, full curve, poor fit] | 1.26 µM [falling, partial curve]
O=C(CCCc1ccccc1)c1ccc2c(c1)OCCO2 |  | 14.1 µM [rising, partial curve, poor fit]
CC(C)CCNC(=S)Nc1ccc([N+](=O)[O-])cc1 | 0.126 µM [rising, full curve] | 11.2 µM [rising, partial curve]
O=C(Nc1ccc(F)c(F)c1)c1ccc(F)c(S(=O)(=O)N2CCOCC2)c1 | 4.47 µM [rising, single point] | 7.94 µM [rising, partial curve]
COc1ccc2nc(Nc3nc(-c4ccncc4)cs3)sc2c1 | 35.5 µM [falling, single point] | 
CSc1nc(Cl)c(Cc2ccc(OC(C)C)cc2)c(N(C)C)n1 |  | 11.2 µM [rising, single point]
O=C(Nc1nc2c(s1)CCCC2)c1cc(-c2ccccc2)nc2ccccc12 |  | 20 µM [rising, single point]
Cc1ccccc1NC(=O)CN1C(=O)N/C(=C\c2ccc(N3CCOCC3)c(F)c2)C1=O | 7.94 µM [falling, partial curve] | 5.62 µM [falling, partial curve, poor fit]
COc1ccc(C(=O)NCCn2cc(SCC(=O)NCc3ccco3)c3ccccc32)cc1 |  | 31.6 µM [rising, single point]
O=C(Nc1ccc(NC(=O)c2ccco2)nc1)c1ccccn1 |  | 3.16 µM [rising, single point]
CCC(=O)N(Cc1cc2cc(OC)ccc2[nH]c1=O)c1cccc(C)c1 |  | 4.47 µM [rising, partial curve]
CCOC(=O)c1c(C)[nH]c2cc(Br)c(OC)cc12 |  | 17.8 µM [rising, single point]
Cc1cc(C(=O)COC(=O)c2n[nH]c3ccccc23)c(C)n1CC1CCCO1 (configuration not stated) | 20 µM [rising, single point] | 20 µM [rising, single point]

2 of the compounds above, tab-delimited:
Structure (SMILES)	AC50 [1]	AC50 [2]
Cc1ccc(S(=O)(=O)NNC(=O)C(=O)NNS(=O)(=O)c2ccc(C)cc2)cc1	0.158 µM [falling, full curve, poor fit]	0.178 µM [falling, full curve, poor fit]
Cc1cc(C)c2nc(/N=C(\N)NC(=O)Nc3ccccc3)nc(C)c2c1		15.8 µM [rising, partial curve]
